# Experimental data reported in US20260315564A1, “THE USE OF TP3 (THYMOPENTIN ANALOG) BY INCREASING THE ACTIVITY AND NUMBER OF T-CELLS INVOLVED IN THE DEFENSE MECHANISM OF THE IMMUNE SYSTEM OF MAMMALS, FOR THE PREVENTION OR TREATMENT OF DISEASES TO EXTEND THE AVERAGE LIFESPAN” (priority 2023, published 2026).
# Not every detail of the peptide structures is certain; ends, links or a residue may be inferred. Marks after values point to notes of the source that are not given here. Residues, ends and D or L forms follow the SMILES beside them.
# How the values were obtained:
# Assay type in all cases: in vivo
# lifespan of old mice = test: Lifespan study of old Balb/c male mice
# DTH reaction (PPD) = test: Delayed-type hypersensitivity (DTH) reaction in guinea pigs; conditions: n = 12/group, PPD 217.9
# peritoneal macrophages = test: Peritoneal macrophages in DTH reaction / macrophage disappearance reaction (MER); conditions: guinea pigs
structure (smiles),measurement,setting,value
N=C(N)NCCC[C@H](N)C(=O)N[C@@H](CCCCN)C(=O)N[C@@H](CC(=O)O)C(=O)O [TP3] (H-Arg-Lys-Asp-OH),surviving mice,"lifespan of old mice; 1.0 mg/kg/ip, 3x/week, week 79, control 10",10
same,surviving mice,"lifespan of old mice; 1.0 mg/kg/ip, 3x/week, week 80, control 8",10
same,surviving mice,"lifespan of old mice; 1.0 mg/kg/ip, 3x/week, week 81, control 8",10
same,surviving mice,"lifespan of old mice; 1.0 mg/kg/ip, 3x/week, week 82, control 7",10
same,surviving mice,"lifespan of old mice; 1.0 mg/kg/ip, 3x/week, week 83, control 5",10
same,surviving mice,"lifespan of old mice; 1.0 mg/kg/ip, 3x/week, week 84, control 3",10
same,surviving mice,"lifespan of old mice; 1.0 mg/kg/ip, 3x/week, week 85, control 3",10
same,surviving mice,"lifespan of old mice; 1.0 mg/kg/ip, 3x/week, week 86, control 0",10
same,surviving mice,"lifespan of old mice; 1.0 mg/kg/ip, treatment stopped, week 104",10
same,surviving mice,"lifespan of old mice; 1.0 mg/kg/ip, treatment stopped, week 105",7
same,surviving mice,"lifespan of old mice; 1.0 mg/kg/ip, treatment stopped, week 106",6
same,surviving mice,"lifespan of old mice; 1.0 mg/kg/ip, treatment stopped, week 107",2
same,surviving mice,"lifespan of old mice; 1.0 mg/kg/ip, treatment stopped, week 108",1
same,surviving mice,"lifespan of old mice; 1.0 mg/kg/ip, treatment stopped, week 109",0
same,surviving mice,"lifespan of old mice; 0001 mg/kg/ip. (so in the source), 3x/week, week 79, control 10",10
same,surviving mice,"lifespan of old mice; 0001 mg/kg/ip. (so in the source), 3x/week, week 80, control 8",10
same,surviving mice,"lifespan of old mice; 0001 mg/kg/ip. (so in the source), 3x/week, week 81, control 8",10
same,surviving mice,"lifespan of old mice; 0001 mg/kg/ip. (so in the source), 3x/week, week 82, control 7",10
same,surviving mice,"lifespan of old mice; 0001 mg/kg/ip. (so in the source), 3x/week, week 83, control 5",10
same,surviving mice,"lifespan of old mice; 0001 mg/kg/ip. (so in the source), 3x/week, week 84, control 3",10
same,surviving mice,"lifespan of old mice; 0001 mg/kg/ip. (so in the source), 3x/week, week 85, control 3",10
same,surviving mice,"lifespan of old mice; 0001 mg/kg/ip. (so in the source), 3x/week, week 86, control 0",10
same,surviving mice,"lifespan of old mice; 0001 mg/kg/ip. (so in the source), treatment stopped, week 104",9
same,surviving mice,"lifespan of old mice; 0001 mg/kg/ip. (so in the source), treatment stopped, week 105",6
same,surviving mice,"lifespan of old mice; 0001 mg/kg/ip. (so in the source), treatment stopped, week 106",3
same,surviving mice,"lifespan of old mice; 0001 mg/kg/ip. (so in the source), treatment stopped, week 107",2
same,surviving mice,"lifespan of old mice; 0001 mg/kg/ip. (so in the source), treatment stopped, week 108",0
same,difference in survival rate between treated groups,"lifespan of old mice; 1.0 vs 0001 mg/kg (so in the source), in words",no difference
same,survival beyond control mice,"lifespan of old mice; treatment from 1.5 years of age for 3 months, no further treatment",more than 1.5 months
same,"DTH reaction, skin redness (bőrpir)",DTH reaction (PPD); 0.1 mg/kg/s.c.,138.6* mm/π
same,"DTH reaction, skin redness (bőrpir)",DTH reaction (PPD); 1.0 mg/kg/s.c.,89.3** mm/π
same,"DTH reaction, skin redness (bőrpir)",DTH reaction (PPD); 20.0 mg/kg/s.c.,186.0 mm/π
same,peritoneal macrophages in DTH-reaction,"peritoneal macrophages; Giemsa staining, 0.9% NaCl 58.7",55.0**
same,peritoneal macrophages in DTH-reaction,"peritoneal macrophages; nonspecific esterase staining, 0.9% NaCl 36.7",28.3*
